These are yes or no findings as the source states them, for the method shown. Some results given as binding are weak or reduced against the parent protein; the word gives no strength.

The chains behind the UniProt entries cited, without tags or fusion partners. Where a name states a change or a piece, a line headed by the entry shows the natural chain unless it says otherwise.
UniProt Q5VYX0: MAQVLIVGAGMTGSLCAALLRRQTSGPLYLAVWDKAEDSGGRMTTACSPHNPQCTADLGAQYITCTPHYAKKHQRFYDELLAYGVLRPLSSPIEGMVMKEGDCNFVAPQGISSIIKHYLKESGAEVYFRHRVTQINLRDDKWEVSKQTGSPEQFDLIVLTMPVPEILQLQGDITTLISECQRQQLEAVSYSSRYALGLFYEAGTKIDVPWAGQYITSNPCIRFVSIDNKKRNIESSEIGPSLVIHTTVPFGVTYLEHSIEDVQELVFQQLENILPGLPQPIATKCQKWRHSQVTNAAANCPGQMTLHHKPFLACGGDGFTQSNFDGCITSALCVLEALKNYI

The target of this experiment is human renalase (Monoamine Oxidase C), endogenous protein in human plasma, urine, kidney and heart (human) (UniProt Q5VYX0). Kind of experiment: gel image of renalase affinity purified from human urine.

B1: human renalase (Monoamine Oxidase C), endogenous protein in human plasma, urine, kidney and heart (enzyme)
chain: AALLRRQTSGPLYLAVWDKADDSGGRMTTACSPHNPQCTADLGAQYITCTPHYAKKHQRFYDELLAYGVLRPLSSPIEGMVMKEGDCNFVAPQGISSIIKHYLKESGAEVYFRHRVTQINLRDDKWEVSKQTGSPEQFDLIVLTMPVPEILQLQGDITTLISECQRQQLEAVSYSSRYALGLFYEAGTKIDVPWAGQYITSNPCIRFVSIDNKKRNIESSEIGPSLVIHTTVPFGVTYLEHSIEDVQELVFQQLENILPGLPQPIATKCQKWRHSQVTNAAANCPGQMTLHHKPFLACGGDGFTQSNFDGCITSALCVLEALKNYI
B1: the binding result is recorded as “binds”.

These data come from patent US20070275083A1.
